Values of other authors in PMC12349723, “Computationally accelerated identification of P-glycoprotein inhibitors” (PLOS One, 2025).

System: P-gp
Parameters: method as in earlier work
Conditions: ref [66-68]; cited from earlier work

CCCCc1oc2ccccc2c1C(=O)c1cc(I)c(OCCN(CC)CC)c(I)c1 [Amiodarone]
P-gp Substrate? (known transport substrate of P-gp): Yes
